Two substances from publication PMC13156305 can be followed below.

Protein sequences, listed by entry. Tags and fused reporters are not part of them.
UniProt Q15386: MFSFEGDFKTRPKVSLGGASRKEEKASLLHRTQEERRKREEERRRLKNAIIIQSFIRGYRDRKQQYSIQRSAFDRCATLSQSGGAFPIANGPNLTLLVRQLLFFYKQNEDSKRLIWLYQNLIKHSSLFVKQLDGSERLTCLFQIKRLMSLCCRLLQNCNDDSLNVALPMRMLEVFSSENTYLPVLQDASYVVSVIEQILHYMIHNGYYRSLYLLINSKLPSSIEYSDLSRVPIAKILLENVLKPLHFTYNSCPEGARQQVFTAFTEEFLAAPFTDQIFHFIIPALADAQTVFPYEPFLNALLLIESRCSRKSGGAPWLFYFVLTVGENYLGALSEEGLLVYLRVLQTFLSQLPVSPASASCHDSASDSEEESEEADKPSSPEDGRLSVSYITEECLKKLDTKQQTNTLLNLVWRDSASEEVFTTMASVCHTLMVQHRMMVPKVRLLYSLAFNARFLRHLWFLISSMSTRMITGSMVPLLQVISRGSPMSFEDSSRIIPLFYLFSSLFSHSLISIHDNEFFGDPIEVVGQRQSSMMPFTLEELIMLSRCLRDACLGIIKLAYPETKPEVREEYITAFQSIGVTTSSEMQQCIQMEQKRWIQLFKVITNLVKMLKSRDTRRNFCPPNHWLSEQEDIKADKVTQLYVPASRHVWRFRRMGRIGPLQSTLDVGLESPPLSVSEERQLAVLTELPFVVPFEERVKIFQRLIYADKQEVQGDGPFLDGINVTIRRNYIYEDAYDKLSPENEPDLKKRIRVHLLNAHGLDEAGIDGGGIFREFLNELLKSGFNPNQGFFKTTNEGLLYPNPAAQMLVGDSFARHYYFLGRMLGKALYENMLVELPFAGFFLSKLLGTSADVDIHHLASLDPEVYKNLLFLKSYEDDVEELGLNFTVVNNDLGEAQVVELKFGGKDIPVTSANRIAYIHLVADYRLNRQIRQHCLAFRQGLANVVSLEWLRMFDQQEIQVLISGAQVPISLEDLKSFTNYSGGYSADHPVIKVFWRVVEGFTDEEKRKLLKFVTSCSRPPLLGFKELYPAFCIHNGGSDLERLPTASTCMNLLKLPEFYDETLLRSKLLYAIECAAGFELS
UniProt Q9Y4R8: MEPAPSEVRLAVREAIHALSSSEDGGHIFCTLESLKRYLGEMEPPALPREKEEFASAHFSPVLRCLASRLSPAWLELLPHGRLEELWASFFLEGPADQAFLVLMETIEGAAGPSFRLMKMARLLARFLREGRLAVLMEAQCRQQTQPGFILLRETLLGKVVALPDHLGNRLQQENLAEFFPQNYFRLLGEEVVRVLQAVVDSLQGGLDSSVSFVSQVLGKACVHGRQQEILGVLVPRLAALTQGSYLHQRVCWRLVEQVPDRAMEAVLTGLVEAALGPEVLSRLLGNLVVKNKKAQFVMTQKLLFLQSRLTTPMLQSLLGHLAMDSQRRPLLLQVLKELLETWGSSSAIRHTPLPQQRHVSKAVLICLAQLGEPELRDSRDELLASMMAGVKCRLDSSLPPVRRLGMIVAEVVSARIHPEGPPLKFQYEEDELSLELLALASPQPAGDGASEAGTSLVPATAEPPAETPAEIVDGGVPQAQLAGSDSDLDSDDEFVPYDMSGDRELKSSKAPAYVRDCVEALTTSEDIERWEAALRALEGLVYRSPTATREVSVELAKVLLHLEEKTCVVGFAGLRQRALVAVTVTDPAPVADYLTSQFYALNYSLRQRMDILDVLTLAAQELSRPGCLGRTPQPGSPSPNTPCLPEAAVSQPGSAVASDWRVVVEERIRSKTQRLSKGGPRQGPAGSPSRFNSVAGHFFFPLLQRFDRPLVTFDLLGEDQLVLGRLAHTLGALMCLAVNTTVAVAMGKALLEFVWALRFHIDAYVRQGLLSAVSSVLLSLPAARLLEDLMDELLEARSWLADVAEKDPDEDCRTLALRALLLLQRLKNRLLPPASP

Assay [1] has as its target mLST8-HA wild type, expressed in HT29 cells (human) (UniProt Q9BVC4). Put plainly: co-IP; HT29 cells transduced with mLST8-HA proteins, with or without SLAP overexpression; endogenous RICTOR or UBE3C.
Assay [2] addresses T1, Src-Like Adaptor Protein (SLAP)-Flag, overexpressed in CRC cells (UniProt Q60898).
T1 sequence: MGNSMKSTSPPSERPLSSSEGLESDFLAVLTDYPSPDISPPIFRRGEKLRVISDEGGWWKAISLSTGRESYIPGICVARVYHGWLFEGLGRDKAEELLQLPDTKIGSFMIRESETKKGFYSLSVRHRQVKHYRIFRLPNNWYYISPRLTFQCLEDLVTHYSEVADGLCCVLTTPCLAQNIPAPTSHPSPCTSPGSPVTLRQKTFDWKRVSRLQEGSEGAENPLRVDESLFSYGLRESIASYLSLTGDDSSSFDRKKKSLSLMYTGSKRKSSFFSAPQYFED
Kind of assay: co-IP; lysates of HT29 and SW620 cells overexpressing SLAP-Flag (or its mutants), endogenous partners detected by WB; also after siRNA against LST8 or depletion of TELO2.

Assay [3] has as its target T2, Src-Like Adaptor Protein (SLAP), expressed in HEK293T cells (UniProt Q60898).
T2 sequence: T1 sequence
Put plainly: co-IP; SLAP and each single component of the complex expressed in HEK293T cells; the method is not named for this experiment.

Results are given in words; binding and its absence hold for the method and conditions named. Binding seen in cells or lysates may run through a third protein. Some entries that bind do so weakly or less than the wild type. For part of these data: Sequences can lack the tags named with a protein.

Turning to “E3 ubiquitin ligase UBE3C, endogenous in CRC cells (from UniProt Q15386 1-1083) (enzyme)”, the binding result in assay [1] and in assay [2] was “binds” in each case. Take “TELO2, expressed in HEK293T cells (from UniProt Q9Y4R8 1-837)”: the binding result in assay [3] is “binds”.
